Measured values as given in PubChem BioAssay AID258 (DTP/NCI, 2004).
The list is a part of this screen's results and no random one: it gathers tests that were run many times, whatever their T/C, doses with no T/C, and many T/C values between a quarter and a half above the control. Further doses and runs are listed elsewhere. T/C is the treated group as % of the vehicle group. Some doses have a count of surviving animals in place of a T/C: the source files T/C as zero there, which appears to mark a toxic dose or a test without result, not a measured value. Some doses without a T/C left all or most animals alive at the check, yet need not have been tolerated: the source hardly ever lists a survival T/C far under the control, and the zero likely stands for such cases as well. Counts of survivors are from the toxicity check (mostly the fifth day) where no day follows; animals may have died later. Schedule codes are those of the source, taken here to give the interval after Q, in days (D) or hours (H), and the number of doses after X. Where survival is the endpoint, this PubChem deposit counts one and a half times the control or more as active, and values a quarter to a half above the control carry no call in these data; other NCI protocols may use other cut-offs. Some entries hold several experiments; their values stand side by side, smallest first. Some T/C values carry the count of animals alive at the toxicity check (mostly the fifth day); without a count, all were alive then.

Tested on: CD2F1 mice, L1210 leukemia sc, survival T/C
Test: NCI In Vivo Anticancer Drug Screen. Data for tumor model L1210 Leukemia (subcutaneous) in CD2F1 (CDF1) mice
Settings: T/C endpoint: median survival time, vehicle: saline, higher T/C = longer survival
Outline: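 Transplantable tumor-bearing mice were treated with compound; survival or tumor size measured and expressed as treated-group value (T) divided by vehicle-treated control value (C).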

[1] = dose: 16.9 mg/kg/injection, schedule: Q01DX001 (ip)
[2] = dose: 25.3 mg/kg/injection, schedule: Q01DX001 (ip)

Nc1ccn([C@@H]2C=C(CO)[C@@H](O)[C@H]2O)c(=O)n1
T/C (dose: 0.2 mg/kg/injection, schedule: Q03HX016 (ip)): 125 % of control
T/C (dose: 0.2 mg/kg/injection, schedule: Q03HX024 (ip)): 134 % of control
T/C (dose: 0.29 mg/kg/injection, schedule: Q03HX024 (ip)): 126 % of control
T/C (dose: 0.3 mg/kg/injection, schedule: Q03HX016 (ip)): 127 % of control
T/C (dose: 0.3 mg/kg/injection, schedule: Q03HX024 (ip)): 141 % of control [5 of 6 alive]
T/C (dose: 0.45 mg/kg/injection, schedule: Q03HX016 (ip), evaluated on day 30): 141 % of control
T/C (dose: 0.45 mg/kg/injection, schedule: Q03HX016 (ip), evaluated on day 45): 134 % of control
T/C (dose: 0.45 mg/kg/injection, schedule: Q03HX024 (ip)): 144 % of control [5 of 6 alive]
T/C (dose: 0.53 mg/kg/injection, schedule: Q01DX009 (ip)): 142 % of control
survivor count (dose: 0.66 mg/kg/injection, schedule: Q03HX016 (ip)): 6 of 6 on day 7
survivor count (dose: 0.66 mg/kg/injection, schedule: Q03HX024 (ip)): 5 of 6 on day 7
T/C (dose: 0.67 mg/kg/injection, schedule: Q01DX009 (ip), evaluated on day 23): 126 and 133 % of control
T/C (dose: 0.67 mg/kg/injection, schedule: Q01DX009 (ip), evaluated on day 30): 111 and 117 % of control
T/C (dose: 0.67 mg/kg/injection, schedule: Q01DX009 (ip), evaluated on day 45): 127 % of control
T/C (dose: 0.67 mg/kg/injection, schedule: Q01DX009 (sc)): 127 % of control
T/C (dose: 0.67 mg/kg/injection, schedule: Q03HX016 (ip), evaluated on day 30): 142 % of control
T/C (dose: 0.67 mg/kg/injection, schedule: Q03HX016 (ip), evaluated on day 45): 132 % of control
survivor count (dose: 0.67 mg/kg/injection, schedule: Q03HX024 (ip)): 6 of 6
T/C (dose: 0.9 mg/kg/injection, schedule: Q03HX008 (ip)): 132 % of control
T/C (dose: 0.99 mg/kg/injection, schedule: Q01DX005 (iv)): 135 % of control
survivor count (dose: 0.99 mg/kg/injection, schedule: Q03HX016 (ip)): 6 of 6 on day 7
survivor count (dose: 0.99 mg/kg/injection, schedule: Q03HX024 (ip)): 5 of 6 on day 7
T/C (dose: 1.0 mg/kg/injection, schedule: Q01DX009 (ip), evaluated on day 23): 150 and 155 % of control
T/C (dose: 1.0 mg/kg/injection, schedule: Q01DX009 (ip), evaluated on day 30): 177 and 183 % of control
T/C (dose: 1.0 mg/kg/injection, schedule: Q01DX009 (ip), evaluated on day 45): 201 % of control
T/C (dose: 1.0 mg/kg/injection, schedule: Q03HX008 (ip)): 132 % of control
T/C (dose: 1.0 mg/kg/injection, schedule: Q03HX016 (ip)): 144 % of control
survivor count (dose: 1.0 mg/kg/injection, schedule: Q03HX024 (ip)): 5 of 6
T/C (dose: 1.3 mg/kg/injection, schedule: Q03HX008 (ip)): 130 % of control
survivor count (dose: 1.49 mg/kg/injection, schedule: Q03HX016 (ip)): 6 of 6 on day 7
T/C (dose: 1.5 mg/kg/injection, schedule: Q01DX009 (ip), evaluated on day 23): 174 and 184 % of control
T/C (dose: 1.5 mg/kg/injection, schedule: Q01DX009 (ip), evaluated on day 30): 192 and 209 % of control
T/C (dose: 1.5 mg/kg/injection, schedule: Q01DX009 (ip), evaluated on day 45): 185 % of control
T/C (dose: 1.5 mg/kg/injection, schedule: Q03HX008 (ip)): 125 % of control
survivor count (dose: 1.5 mg/kg/injection, schedule: Q03HX016 (ip)): 6 of 6
survivor count (dose: 1.5 mg/kg/injection, schedule: Q06HX018 (ip)): 6 of 6
T/C (dose: 1.8 mg/kg/injection, schedule: Q01DX009 (ip)): 134 % of control
T/C (dose: 2.0 mg/kg/injection, schedule: Q03HX008 (ip)): 143 % of control
survivor count (dose: 2.23 mg/kg/injection, schedule: Q03HX008 (ip)): 6 of 6 on day 7
survivor count (dose: 2.23 mg/kg/injection, schedule: Q03HX016 (ip)): 5 of 6 on day 7
T/C (dose: 2.25 mg/kg/injection, schedule: Q01DX009 (ip), evaluated on day 23): 115 and 119 % of control
T/C (dose: 2.25 mg/kg/injection, schedule: Q01DX009 (ip), evaluated on day 30): 116 and 206 % of control
T/C (dose: 2.25 mg/kg/injection, schedule: Q01DX009 (ip), evaluated on day 45): 192 % of control
T/C (dose: 2.25 mg/kg/injection, schedule: Q03HX008 (ip)): 134 % of control
T/C (dose: 2.67 mg/kg/injection, schedule: Q03HX004 (iv)): 127 % of control
survivor count (dose: 3.34 mg/kg/injection, schedule: Q01DX005 (iv)): 10 of 10 on day 7
survivor count (dose: 3.34 mg/kg/injection, schedule: Q03HX008 (ip)): 6 of 6 on day 7
T/C (dose: 4.0 mg/kg/injection, schedule: Q03HX004 (iv)): 143 % of control
survivor count (dose: 5.0 mg/kg/injection, schedule: Q01DX005 (iv)): 10 of 10 on day 7
survivor count (dose: 5.0 mg/kg/injection, schedule: Q03HX008 (ip)): 6 of 6 on day 7
T/C (dose: 6.0 mg/kg/injection, schedule: Q03HX004 (iv)): 148 % of control
T/C (dose: 7.5 mg/kg/injection, schedule: Q01DX001 (ip)): 125 % of control
survivor count (dose: 13.5 mg/kg/injection, schedule: Q03HX004 (iv)): 7 of 8
T/C (dose: 16.0 mg/kg/injection, schedule: Q01DX001 (ip)): 134 % of control
T/C (dose: 16.0 mg/kg/injection, schedule: Q01DX001 (iv)): 127 % of control
T/C [1]: 134 % of control
survivor count [1]: 6 of 6 on day 7
T/C (dose: 24.0 mg/kg/injection, schedule: Q01DX001 (ip)): 137 % of control
T/C (dose: 24.0 mg/kg/injection, schedule: Q01DX001 (iv)): 144 % of control
T/C [2]: 144 % of control
survivor count [2]: 6 of 6 on day 7
survivor count (dose: 25.3 mg/kg/injection, schedule: Q01DX001 (iv)): 6 of 6 on day 7
T/C (dose: 36.0 mg/kg/injection, schedule: Q01DX001 (iv)): 148 % of control
survivor count (dose: 37.9 mg/kg/injection, schedule: Q01DX001 (ip)): 6 of 6 on day 7
survivor count (dose: 56.8 mg/kg/injection, schedule: Q01DX001 (ip)): 6 of 6 on day 7
T/C (dose: 130.0 micrograms/kg/injection, schedule: Q03HX024 (ip)): 137 % of control
T/C (dose: 300.0 micrograms/kg/injection, schedule: Q03HX024 (ip)): 141 % of control
T/C (dose: 450.0 micrograms/kg/injection, schedule: Q03HX024 (ip)): 142 % of control
